Measured values reported in the supplement of paper PMC12819154, “High-throughput peptide-centric local stability assay extends protein–ligand identification to membrane proteins, tissues and bacteria” (Nature Structural & Molecular Biology, 2025).
Some of the results follow. Most entries show no effect beyond the scatter of the controls.

The chains behind the UniProt entries cited, without tags or fusion partners. Where a name states a change or a piece, a line headed by the entry shows the natural chain unless it says otherwise.
UniProt Q9P0J0, whole entry: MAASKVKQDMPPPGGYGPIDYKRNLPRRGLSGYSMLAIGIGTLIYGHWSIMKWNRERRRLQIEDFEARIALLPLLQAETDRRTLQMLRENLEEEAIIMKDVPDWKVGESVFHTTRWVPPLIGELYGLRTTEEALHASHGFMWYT
UniProt Q9UBH6: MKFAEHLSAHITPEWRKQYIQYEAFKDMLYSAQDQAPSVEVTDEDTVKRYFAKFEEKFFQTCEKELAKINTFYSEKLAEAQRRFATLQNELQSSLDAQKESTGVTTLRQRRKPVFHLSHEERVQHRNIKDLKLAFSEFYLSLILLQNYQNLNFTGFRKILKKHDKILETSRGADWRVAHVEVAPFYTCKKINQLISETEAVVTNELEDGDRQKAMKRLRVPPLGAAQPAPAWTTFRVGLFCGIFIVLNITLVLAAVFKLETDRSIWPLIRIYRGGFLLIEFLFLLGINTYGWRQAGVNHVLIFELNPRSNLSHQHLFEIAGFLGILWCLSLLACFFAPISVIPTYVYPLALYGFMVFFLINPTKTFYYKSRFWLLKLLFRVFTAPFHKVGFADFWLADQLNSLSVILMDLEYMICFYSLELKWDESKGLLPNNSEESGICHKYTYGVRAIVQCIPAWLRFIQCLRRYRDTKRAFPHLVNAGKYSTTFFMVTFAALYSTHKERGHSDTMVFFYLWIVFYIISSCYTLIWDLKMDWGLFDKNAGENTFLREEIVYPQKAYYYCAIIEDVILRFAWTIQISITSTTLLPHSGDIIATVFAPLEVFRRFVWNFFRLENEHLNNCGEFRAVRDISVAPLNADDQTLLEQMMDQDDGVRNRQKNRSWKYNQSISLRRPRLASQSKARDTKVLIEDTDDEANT
UniProt Q9UC07: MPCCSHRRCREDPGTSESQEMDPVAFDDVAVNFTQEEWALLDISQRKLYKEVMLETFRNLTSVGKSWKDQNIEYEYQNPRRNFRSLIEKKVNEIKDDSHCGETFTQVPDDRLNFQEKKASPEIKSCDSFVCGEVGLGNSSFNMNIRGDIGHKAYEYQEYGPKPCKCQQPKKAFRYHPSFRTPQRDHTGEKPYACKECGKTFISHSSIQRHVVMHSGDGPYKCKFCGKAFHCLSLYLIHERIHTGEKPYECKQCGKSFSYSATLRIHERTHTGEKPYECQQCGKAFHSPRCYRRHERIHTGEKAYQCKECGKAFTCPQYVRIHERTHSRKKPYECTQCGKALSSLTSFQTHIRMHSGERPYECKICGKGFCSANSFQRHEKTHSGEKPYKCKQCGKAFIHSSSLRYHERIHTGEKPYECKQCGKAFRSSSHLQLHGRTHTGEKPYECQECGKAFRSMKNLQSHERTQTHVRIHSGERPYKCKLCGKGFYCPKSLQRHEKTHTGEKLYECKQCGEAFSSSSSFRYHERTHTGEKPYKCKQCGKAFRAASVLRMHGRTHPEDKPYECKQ
UniProt Q9UBF6, whole entry: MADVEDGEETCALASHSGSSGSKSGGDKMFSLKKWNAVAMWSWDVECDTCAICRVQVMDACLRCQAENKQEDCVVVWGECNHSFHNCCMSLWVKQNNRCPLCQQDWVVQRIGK
UniProt Q9P2B7: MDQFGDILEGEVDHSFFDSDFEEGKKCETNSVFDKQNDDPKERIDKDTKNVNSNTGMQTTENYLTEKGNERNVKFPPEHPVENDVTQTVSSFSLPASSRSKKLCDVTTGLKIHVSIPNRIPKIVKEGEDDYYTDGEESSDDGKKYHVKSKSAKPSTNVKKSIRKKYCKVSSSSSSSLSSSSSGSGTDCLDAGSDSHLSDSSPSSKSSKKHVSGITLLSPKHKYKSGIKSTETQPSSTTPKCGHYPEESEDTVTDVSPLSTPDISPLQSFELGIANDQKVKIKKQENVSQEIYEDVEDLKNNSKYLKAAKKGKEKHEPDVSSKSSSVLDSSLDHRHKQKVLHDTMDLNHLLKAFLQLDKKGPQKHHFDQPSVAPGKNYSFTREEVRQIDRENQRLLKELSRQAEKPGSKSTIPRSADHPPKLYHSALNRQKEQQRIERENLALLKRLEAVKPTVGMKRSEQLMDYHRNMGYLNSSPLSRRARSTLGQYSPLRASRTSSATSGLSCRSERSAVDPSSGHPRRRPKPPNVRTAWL
UniProt Q9NZ09: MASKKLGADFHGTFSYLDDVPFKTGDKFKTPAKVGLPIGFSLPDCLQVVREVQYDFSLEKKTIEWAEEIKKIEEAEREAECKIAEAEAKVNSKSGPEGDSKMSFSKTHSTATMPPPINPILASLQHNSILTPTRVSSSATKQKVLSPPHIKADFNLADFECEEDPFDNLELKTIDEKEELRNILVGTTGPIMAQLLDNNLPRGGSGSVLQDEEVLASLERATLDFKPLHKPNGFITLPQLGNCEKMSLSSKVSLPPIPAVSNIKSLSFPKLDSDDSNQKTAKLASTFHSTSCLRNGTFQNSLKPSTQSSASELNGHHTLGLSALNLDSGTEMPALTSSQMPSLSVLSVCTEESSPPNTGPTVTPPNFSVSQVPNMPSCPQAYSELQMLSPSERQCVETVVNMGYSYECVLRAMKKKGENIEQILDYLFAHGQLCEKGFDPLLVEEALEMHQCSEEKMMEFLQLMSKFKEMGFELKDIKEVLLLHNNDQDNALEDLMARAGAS
UniProt Q9NYM9: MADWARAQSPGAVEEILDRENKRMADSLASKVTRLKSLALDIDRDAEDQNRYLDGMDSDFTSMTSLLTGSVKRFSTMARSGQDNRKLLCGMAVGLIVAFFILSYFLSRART
UniProt Q9P2M4: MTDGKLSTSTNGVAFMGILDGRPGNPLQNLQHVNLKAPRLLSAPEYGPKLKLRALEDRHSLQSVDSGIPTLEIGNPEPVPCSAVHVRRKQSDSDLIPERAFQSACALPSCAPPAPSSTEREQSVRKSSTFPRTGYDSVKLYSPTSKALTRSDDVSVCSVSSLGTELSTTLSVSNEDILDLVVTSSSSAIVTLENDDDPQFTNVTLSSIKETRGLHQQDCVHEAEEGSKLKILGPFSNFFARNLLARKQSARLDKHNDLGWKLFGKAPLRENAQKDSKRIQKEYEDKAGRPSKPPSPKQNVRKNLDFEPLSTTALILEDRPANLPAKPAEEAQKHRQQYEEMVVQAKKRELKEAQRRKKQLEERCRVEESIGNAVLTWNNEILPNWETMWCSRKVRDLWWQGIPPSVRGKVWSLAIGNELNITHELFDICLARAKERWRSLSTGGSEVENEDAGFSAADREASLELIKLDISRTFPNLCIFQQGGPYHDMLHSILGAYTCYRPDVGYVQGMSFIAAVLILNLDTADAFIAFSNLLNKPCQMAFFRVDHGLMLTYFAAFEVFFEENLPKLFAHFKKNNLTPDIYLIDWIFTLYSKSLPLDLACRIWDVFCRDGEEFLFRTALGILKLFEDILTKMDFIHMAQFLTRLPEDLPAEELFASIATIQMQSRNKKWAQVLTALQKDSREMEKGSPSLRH
UniProt Q9NZQ9: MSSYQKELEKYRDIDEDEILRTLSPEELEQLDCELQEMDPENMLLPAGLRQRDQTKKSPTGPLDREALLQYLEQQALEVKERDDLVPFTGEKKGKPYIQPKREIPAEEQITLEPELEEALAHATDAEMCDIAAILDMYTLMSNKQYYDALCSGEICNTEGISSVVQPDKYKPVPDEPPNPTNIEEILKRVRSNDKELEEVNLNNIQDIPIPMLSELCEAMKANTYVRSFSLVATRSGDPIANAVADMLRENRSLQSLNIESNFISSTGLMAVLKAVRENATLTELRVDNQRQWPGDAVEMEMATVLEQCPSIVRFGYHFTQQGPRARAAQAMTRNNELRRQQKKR
UniProt Q9NXJ5: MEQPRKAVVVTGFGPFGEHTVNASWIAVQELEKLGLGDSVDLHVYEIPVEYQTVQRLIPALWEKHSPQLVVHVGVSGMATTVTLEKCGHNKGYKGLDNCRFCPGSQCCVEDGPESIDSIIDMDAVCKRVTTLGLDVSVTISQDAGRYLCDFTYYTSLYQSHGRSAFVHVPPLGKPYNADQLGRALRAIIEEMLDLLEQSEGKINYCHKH
UniProt Q9P2N6: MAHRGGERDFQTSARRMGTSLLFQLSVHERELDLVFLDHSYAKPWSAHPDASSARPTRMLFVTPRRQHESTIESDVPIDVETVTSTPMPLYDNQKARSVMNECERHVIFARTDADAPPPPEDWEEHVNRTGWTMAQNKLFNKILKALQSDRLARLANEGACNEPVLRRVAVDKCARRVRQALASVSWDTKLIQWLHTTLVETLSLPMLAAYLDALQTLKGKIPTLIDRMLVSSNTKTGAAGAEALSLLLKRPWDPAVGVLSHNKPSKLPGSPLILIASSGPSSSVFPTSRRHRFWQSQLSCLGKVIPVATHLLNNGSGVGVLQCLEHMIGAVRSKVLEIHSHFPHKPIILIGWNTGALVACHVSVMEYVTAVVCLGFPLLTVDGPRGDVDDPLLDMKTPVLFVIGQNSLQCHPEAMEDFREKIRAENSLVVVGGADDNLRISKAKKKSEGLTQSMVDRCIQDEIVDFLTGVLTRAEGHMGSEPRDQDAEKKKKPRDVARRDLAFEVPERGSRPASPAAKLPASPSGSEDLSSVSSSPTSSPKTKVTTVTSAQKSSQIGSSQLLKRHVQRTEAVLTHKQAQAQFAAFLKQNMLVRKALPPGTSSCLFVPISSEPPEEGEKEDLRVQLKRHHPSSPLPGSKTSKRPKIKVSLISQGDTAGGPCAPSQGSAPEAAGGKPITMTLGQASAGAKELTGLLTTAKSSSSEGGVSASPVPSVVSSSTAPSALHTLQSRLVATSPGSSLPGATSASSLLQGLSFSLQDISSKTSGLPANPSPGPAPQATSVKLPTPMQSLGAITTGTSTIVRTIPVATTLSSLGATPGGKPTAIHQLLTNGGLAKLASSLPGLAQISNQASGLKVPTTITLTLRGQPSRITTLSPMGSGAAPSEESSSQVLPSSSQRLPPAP
UniProt Q9NZZ3: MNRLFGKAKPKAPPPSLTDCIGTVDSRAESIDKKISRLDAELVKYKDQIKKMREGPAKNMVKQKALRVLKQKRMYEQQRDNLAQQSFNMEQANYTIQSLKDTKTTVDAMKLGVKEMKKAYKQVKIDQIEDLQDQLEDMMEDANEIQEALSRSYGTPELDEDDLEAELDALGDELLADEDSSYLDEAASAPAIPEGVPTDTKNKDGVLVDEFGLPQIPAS
UniProt Q9NXB0: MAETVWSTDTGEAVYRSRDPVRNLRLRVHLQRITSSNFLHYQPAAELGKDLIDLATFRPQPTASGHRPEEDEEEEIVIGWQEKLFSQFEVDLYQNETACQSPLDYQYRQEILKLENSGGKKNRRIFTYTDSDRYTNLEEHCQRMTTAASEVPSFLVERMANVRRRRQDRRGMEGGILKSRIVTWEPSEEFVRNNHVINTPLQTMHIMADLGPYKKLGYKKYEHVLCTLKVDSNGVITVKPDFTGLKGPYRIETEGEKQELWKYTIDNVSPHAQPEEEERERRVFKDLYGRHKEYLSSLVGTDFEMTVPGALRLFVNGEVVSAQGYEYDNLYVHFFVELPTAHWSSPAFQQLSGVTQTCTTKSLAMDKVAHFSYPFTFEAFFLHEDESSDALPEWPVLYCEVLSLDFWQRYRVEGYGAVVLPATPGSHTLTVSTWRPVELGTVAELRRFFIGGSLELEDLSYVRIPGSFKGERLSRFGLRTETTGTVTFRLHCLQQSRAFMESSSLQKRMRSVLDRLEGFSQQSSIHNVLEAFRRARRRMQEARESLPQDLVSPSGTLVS
UniProt Q9NYV6: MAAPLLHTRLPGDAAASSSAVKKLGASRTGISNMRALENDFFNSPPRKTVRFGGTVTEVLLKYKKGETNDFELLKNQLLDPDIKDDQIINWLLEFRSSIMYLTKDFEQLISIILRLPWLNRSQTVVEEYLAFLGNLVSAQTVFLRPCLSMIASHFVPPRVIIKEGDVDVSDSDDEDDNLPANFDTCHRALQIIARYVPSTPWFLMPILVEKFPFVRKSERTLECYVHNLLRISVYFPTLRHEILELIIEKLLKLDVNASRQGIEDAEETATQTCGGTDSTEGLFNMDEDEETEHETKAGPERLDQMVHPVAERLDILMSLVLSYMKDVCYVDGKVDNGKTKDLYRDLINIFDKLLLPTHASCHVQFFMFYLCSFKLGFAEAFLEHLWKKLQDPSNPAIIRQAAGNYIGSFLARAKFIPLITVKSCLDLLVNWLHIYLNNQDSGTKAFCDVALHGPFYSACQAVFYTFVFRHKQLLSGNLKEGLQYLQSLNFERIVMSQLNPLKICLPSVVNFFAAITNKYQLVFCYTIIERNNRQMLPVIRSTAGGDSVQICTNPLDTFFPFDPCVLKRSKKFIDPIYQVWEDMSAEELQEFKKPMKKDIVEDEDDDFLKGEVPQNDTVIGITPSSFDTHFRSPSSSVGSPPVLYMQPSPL
UniProt Q9NZL9, whole entry: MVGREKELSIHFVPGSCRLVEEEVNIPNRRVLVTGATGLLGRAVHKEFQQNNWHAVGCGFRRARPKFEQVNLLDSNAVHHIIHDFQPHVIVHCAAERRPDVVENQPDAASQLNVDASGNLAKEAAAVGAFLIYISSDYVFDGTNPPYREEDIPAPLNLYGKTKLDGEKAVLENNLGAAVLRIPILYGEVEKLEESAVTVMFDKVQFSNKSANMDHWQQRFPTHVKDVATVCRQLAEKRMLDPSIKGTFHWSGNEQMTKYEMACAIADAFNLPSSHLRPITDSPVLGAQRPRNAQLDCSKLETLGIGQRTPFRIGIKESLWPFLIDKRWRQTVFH

compound: Cc1nc(Nc2ncc(C(=O)Nc3c(C)cccc3Cl)s2)cc(N2CCN(CCO)CC2)n1 [dasatinib]; assay: log2 fold change of tryptic peptide abundance, ligand vs vehicle (limited proteolysis) (log2 ratio); higher = more trypsin-susceptible (destabilized); details: ligand concentration: 5 uM; sample: K562 cleared lysate

| Target | log2 fold change |
| --- | --- |
| UniProt Q9P225 (peptide sequence: KQEFRDDIK, peptide start residue: 2794) | -0.274 |
| SLAIN2 (peptide sequence: LSLQGHPTDLQTSNVKNEEK, peptide start residue: 390) (UniProt Q9P270) | -0.413 |
| MIOS (peptide sequence: SLWYTLHFMK, peptide start residue: 425) (UniProt Q9NXC5) | -0.378 |
| NDUFA13 (peptide sequence: IALLPLLQAETDRR, peptide start residue: 69) (UniProt Q9P0J0) | -0.259 |
| CNOT2 (peptide sequence: REGSGNPTPLINPLAGR, peptide start residue: 239) (UniProt Q9NZN8) | -0.175 |
| UniProt Q9P0J1 (peptide sequence: VTLGQMHGLLTER, peptide start residue: 453) | -0.175 |
| XPR1 (peptide sequence: YNQSISLR, peptide start residue: 663) (UniProt Q9UBH6) | -0.169 |
| KIAA1522 (peptide sequence: RSTVLGLPQHVQK, peptide start residue: 160) (UniProt Q9P206) | -0.334 |
| STIM2 (peptide sequence: VYNGILEK, peptide start residue: 670) (UniProt Q9P246) | 0.16 |
| UniProt Q9NZM5 (peptide sequence: DVLAHQVPNAKK, peptide start residue: 133) | -0.152 |
| UniProt Q9UC07 (peptide sequence: DHTGEKPYACK, peptide start residue: 187) | 1.44 |
| RNF7 (peptide sequence: VQVMDACLR, peptide start residue: 55) (UniProt Q9UBF6) | -0.0991 |
| DIP2B (peptide sequence: NQTPAPSAAQTSAPSKYHR, peptide start residue: 69) (UniProt Q9P265) | 0.409 |
| NKIRAS1 (peptide sequence: SSFPLPGR, peptide start residue: 175) (UniProt Q9NYS0) | 0.369 |
| UniProt Q9P2B7 (peptide sequence: STLGQYSPLR, peptide start residue: 482) | 0.298 |
| RTEL1 (peptide sequence: QDYGAVFLCDHR, peptide start residue: 703) (UniProt Q9NZ71) | -0.89 |
| UniProt Q9UBS0 (peptide sequence: LALPPYLTPDAR, peptide start residue: 286) | -0.0766 |
| UBAP1 (peptide sequence: VLSPPHIK, peptide start residue: 144) (UniProt Q9NZ09) | 0.567 |
| RBM27 (peptide sequence: EEIKEEVFQEPAEEERDGR, peptide start residue: 96) (UniProt Q9P2N5) | -0.141 |

Pulled one by one from the list above (3):

| Target | log2 fold change |
| --- | --- |
| UniProt Q9UBS0 (peptide sequence: LALPPYLTPDAR, peptide start residue: 286) | -0.0766 |
| RBM27 (peptide sequence: EEIKEEVFQEPAEEERDGR, peptide start residue: 96) (UniProt Q9P2N5) | -0.141 |
| UniProt Q9NZM5 (peptide sequence: DVLAHQVPNAKK, peptide start residue: 133) | -0.152 |

Remaining list, next part

| Target | log2 fold change |
| --- | --- |
| BET1L (peptide sequence: AQSPGAVEEILDRENKR, peptide start residue: 7) (UniProt Q9NYM9) | -0.202 |
| TBC1D14 (peptide sequence: LDKHNDLGWK, peptide start residue: 252) (UniProt Q9P2M4) | -0.655 |
| UniProt Q9NZQ9 (peptide sequence: FGYHFTQQGPR, peptide start residue: 315) | -0.0935 |
| PGPEP1 (peptide sequence: LIPALWEK, peptide start residue: 57) (UniProt Q9NXJ5) | -0.0569 |
| UniProt Q9NZQ0 (peptide sequence: MEANMPKR, peptide start residue: 1) | 1.62 |
| UniProt Q9P2N6 (peptide sequence: KKSEGLTQSMVDR, peptide start residue: 446) | -0.496 |
| UniProt Q9P2H5 (peptide sequence: AAYISALPTSPHWGR, peptide start residue: 973) | 0.253 |
| CEP72 (peptide sequence: LCGEIVELK, peptide start residue: 564) (UniProt Q9P209) | 0.351 |
| RCOR3 (peptide sequence: IPEFDPGATK, peptide start residue: 11) (UniProt Q9P2K3) | -0.129 |
| ZNRD1 (peptide sequence: CGHEGMAYHTR, peptide start residue: 90) (UniProt Q9P1U0) | -0.0653 |
| UniProt Q9P260 (peptide sequence: GMSEALVDKR, peptide start residue: 994) | -1.1 |
| VAPA (peptide sequence: HLRDEGLR, peptide start residue: 195) (UniProt Q9P0L0) | 0.0906 |
| PPP4R2 (peptide sequence: LQEALKDFEKR, peptide start residue: 6) (UniProt Q9NY27) | -0.0697 |
| CHMP5 (peptide sequence: YKDQIKK, peptide start residue: 45) (UniProt Q9NZZ3) | -0.0293 |
| UniProt Q9NXB0 (peptide sequence: TETTGTVTFR, peptide start residue: 480) | 0.391 |
| RRN3 (peptide sequence: FGGTVTEVLLK, peptide start residue: 52) (UniProt Q9NYV6) | -0.177 |
| RABL2A (peptide sequence: FQSMHASYYHK, peptide start residue: 83) (UniProt Q9UBK7) | 0.113 |
| MAT2B (peptide sequence: EKELSIHFVPGSCR, peptide start residue: 5) (UniProt Q9NZL9) | 0.107 |
| UniProt Q9UBS9 (peptide sequence: EGPINAESLGK, peptide start residue: 63) | 0.0859 |
